Consider one substance from patent US20230129674 (published 2023).

This data set is described as follows: general procedure: solution-phase peptide synthesis; T3P/NMI/DIPEA; HATU/DIPEA or HATU/2,6-lutidine. The settings on record: coupling step.

Substance Val-Dil-Dap-Phe-OMe showed a step yield of 80%.
